{"source": "patent US20240197756A1", "about": "“METHODS OF TREATMENT WITH NEUROACTIVE STEROIDS” (priority 2021, published 2024)", "experiment": "Multiple escalating dose study, plasma pharmacokinetics of oral suspension (Cohorts 1-3)", "format": "in vivo, human", "conditions": "for Vz/F: Day 14 steady state", "note": "At least one read-out could not be matched to a standard name with certainty."}
{"smiles": "COC[C@@]1(O)CC[C@@]2(C)[C@@H](CC[C@@H]3[C@@H]2CC[C@]2(C)[C@@H](C(=O)Cn4ccnc4)CC[C@@H]32)C1", "note": "[Compound 1, 3α-Hydroxy-3β-methoxymethyl-21-(1′-imidazolyl)-5α-pregnan-20-one]", "values": [{"measurement": "Vz/F", "setting": "Cohort 1 (15.0 mg QD), Mean", "value": 655.194, "unit": "L"}, {"measurement": "Vz/F", "setting": "Cohort 1 (15.0 mg QD), Median", "value": 656.82, "unit": "L"}, {"measurement": "Vz/F", "setting": "Cohort 2 (30.0 mg QD), Mean", "value": 570.566, "unit": "L"}, {"measurement": "mean Vz/F", "setting": "Cohort 3 (60 mg QD), Day 14", "value": 574, "unit": "L"}, {"measurement": "Vz/F", "setting": "Cohort 3 (60.0 mg QD), Geo Mean", "value": 533.456, "unit": "L"}, {"measurement": "Vz/F", "setting": "Cohort 3 (60.0 mg QD), Mean", "value": 574.599, "unit": "L"}]}
